Reference: PubChem BioAssay AID493014 (National Center for Advancing Translational Sciences (NCATS), 2011)
This is one part of the list. Shown are side measurements of this screen, not its main read-out; they come without a call. Most of these compounds were active or inconclusive in the main read-out, so they are no random draw. Potencies come from curve fits of mixed quality, noted in brackets.

Assay: qHTS Assay to Find Inhibitors of Chronic Active B-Cell Receptor Signaling
Details: ABC-DLBCL IkBa-CBG/CBR reporter, luminescence ratio (green luciferase fused to IkBa over red control in TMD8 lymphoma cells), 4 h
How it was run: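 Compounds up to 46 uM were incubated four hours with TMD8 cells whose green CBG68 luciferase is fused to IkappaBalpha; red CBR luminescence normalised the signal, and concentration-effect curves were fitted to fusion, red and ratio data.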

[1] = measured here: CBR red luminescence, cell number
[2] = measured here: IkBa-CBG green luminescence

SMILES | AC50 [1] | AC50 [2]
CC(=O)c1ccc(N2CCN(C(=O)CN(C)S(=O)(=O)c3cnc[nH]3)CC2)cc1 | 5.62 µM [falling, single point] | 
O=C(CSC(=S)N1CCOCC1)c1ccccc1 | 13 µM [falling, partial curve] | 
O=C(NC(=S)NCCc1ccc(Cl)cc1)c1ccco1 | 1.84 µM [rising, partial curve] | 
COc1ccc(OC)c(CCNC(=O)CCCC(=O)n2ncc3cc(C)ccc32)c1 | 0.891 µM [rising, full curve, poor fit] | 
COc1cccc(C2Oc3ccccc3C3CC(c4cccs4)=NN32)c1 (stereo not drawn) | 20 µM [falling, single point] | 
N#CC(c1nc2ccccc2nc1N1CCCC1)S(=O)(=O)c1ccccc1 (stereo not drawn) | 22.4 µM [falling, single point] | 
CCOC(=O)Cc1csc(NC(=O)COc2c(C)cccc2C)n1 | 3.98 µM [rising, partial curve, poor fit] | 
CC(C)CC(=O)Nc1ccc(C(=O)CN2CCN(c3ccc(O)cc3)CC2)cc1 | 35.5 µM [falling, partial curve, poor fit] | 
CCOc1ccc(C(=O)CSc2nnc(N)s2)cc1 | 35.5 µM [rising, single point] | 
N=C1S/C(=C\c2cccc3ccccc23)C(=O)N1c1ccc(F)cc1 | 1.3 µM [falling, full curve] | 
Cc1ccc(C(=O)N2CCCC(C(F)(F)F)C2)cc1S(=O)(=O)N1CCOCC1 (stereo not drawn) | 0.146 µM [rising, full curve, poor fit] | 
O=C(CNC(=O)c1ccccc1Cl)N/N=C/C=C/c1ccccc1 | 29.1 µM [rising, single point] | 
COc1ccc(-n2c(C)cc(/C=N/Nc3nc(N4CCOCC4)nc(N4CCOCC4)n3)c2C)cc1 | 0.092 µM [rising, partial curve, poor fit] | 
CCCNC(=O)c1cccc(COCC(F)(F)C(F)F)c1 | 5.8 µM [rising, partial curve, poor fit] | 
Cc1ccc(C(=O)CC2(O)C(=O)N(CCc3ccccc3)c3ccc(Br)cc32)o1 (stereo not drawn) | 11.6 µM [falling, single point] | 
CCC(=O)NC1=C(Cl)C(=O)C(NC(=O)CC)=C(Cl)C1=O | 12.6 µM [falling, partial curve, poor fit] | 35.5 µM [rising, partial curve, poor fit]
N#Cc1c(N)oc(-c2ccccc2)c1-c1ccccc1 | 11.2 µM [falling, partial curve, poor fit] | 
COc1ccc(NC(=O)c2cccc(N3C(=O)C4CC=C(C)CC4C3=O)c2)c(OC)c1 (stereo not drawn) | 12.6 µM [falling, single point] | 
CCCOc1ccccc1OCC(=O)Nc1ccc(S(=O)(=O)N2CCCCC2)cc1 | 29.1 µM [falling, single point] | 
COc1cc(NC(=O)c2ccco2)c(C(=O)OCC(=O)Nc2ncc(Cl)cc2Cl)cc1OC | 0.116 µM [falling, full curve, poor fit] | 

SMILES | AC50 [1] | AC50 [2]
Cc1ccccc1NC(=O)C1c2cccc[n+]2CC(=O)N1c1c(C)cccc1C (stereo not drawn) | 0.112 µM [falling, full curve, poor fit] | 
CC(=O)c1cnc(N2CCCCC2)nc1C | 0.731 µM [rising, full curve, poor fit] | 
Cc1ccc2nc(NC(=O)c3ccccn3)sc2c1 | 7.08 µM [falling, partial curve] | 10 µM [falling, partial curve]
COc1ccc(CCNc2oc(-c3ccc(OC)c(OC)c3)nc2C#N)cc1 | 3.16 µM [rising, single point] | 
CCc1ccc2[nH]c(=O)c(CN(CCCN3CCOCC3)C(=O)Nc3ccc(F)cc3)cc2c1 | 16.4 µM [falling, partial curve, poor fit] | 25.9 µM [rising, partial curve, poor fit]
O=C(Nc1cc(Cl)cc(Cl)c1)c1ccc(F)c(S(=O)(=O)N2CCCCCC2)c1 |  | 1 µM [rising, full curve, poor fit]
CC(=O)Nc1ccc(NC(=O)Nc2cccc3ccccc23)cc1 | 12.6 µM [falling, partial curve, poor fit] | 
CCOC(=O)c1c(C)[nH]c(NC(=O)N2CCOCC2)c1C | 5.01 µM [rising, full curve, poor fit] | 
CC(=O)Nc1ccc2c(c1)CCC2=O | 29.1 µM [rising, single point] | 
CCOC(=O)c1c(NC(=O)CSc2nnnn2-c2ccccc2)sc2c1CC(C)(C)NC2(C)C | 11.2 µM [falling, single point] | 
COc1ccccc1/C=C/C=N/NC(=O)c1cnccn1 | 15.8 µM [falling, partial curve] | 
O=C(CN1C(=O)NC2(CCCC2)C1=O)OCCOc1ccc(Cl)cc1Cl | 29.1 µM [rising, partial curve, poor fit] | 
Cc1nc2c(ccc3nc(NC(=O)Cc4ccccc4)sc32)s1 | 18.4 µM [falling, partial curve] | 
COc1cccc(C(=O)N2c3ccccc3Sc3ccccc32)c1 | 18.4 µM [falling, single point] | 
CCCCN(C)C(=S)Nc1ccsc1C(=O)OC | 2.82 µM [rising, full curve, poor fit] | 
Cc1cccc(OCC(=O)NNC(=O)c2ccc([N+](=O)[O-])cc2)c1 | 0.1 µM [falling, full curve, poor fit] | 
CCNc1nc(N)nc(Oc2ccc(OCCOc3ccccc3)nn2)n1 | 29.1 µM [falling, single point] | 
C=CCNC(=O)/C(C#N)=C/c1c(N2CCCCCC2)nc2ccccn2c1=O | 35.5 µM [falling, single point] | 
C[C@]12c3[nH]c4ccc(Cl)cc4c3CCN1C(=O)[C@@H](CC(=O)NCCc1ccccn1)C[C@@H]2C(=O)N1CCOCC1 | 7.31 µM [rising, partial curve, poor fit] | 9.2 µM [falling, partial curve, poor fit]

Another view of three compounds above.
SMILES,AC50 [1],AC50 [2]
COc1ccc(CCNc2oc(-c3ccc(OC)c(OC)c3)nc2C#N)cc1,"3.16 µM [rising, single point]",
CCc1ccc2[nH]c(=O)c(CN(CCCN3CCOCC3)C(=O)Nc3ccc(F)cc3)cc2c1,"16.4 µM [falling, partial curve, poor fit]","25.9 µM [rising, partial curve, poor fit]"
O=C(Nc1cc(Cl)cc(Cl)c1)c1ccc(F)c(S(=O)(=O)N2CCCCCC2)c1,,"1 µM [rising, full curve, poor fit]"
